From publication PMC5355340
Results are given in words; binding and its absence hold for the method and conditions named. In cells and extracts the contact can be indirect. Some binding calls cover weakened binding; strength is not graded here.

By UniProt entry, the sequences of proteins in these tests, tags left out. Residues count along the entry.
UniProt Q9NP84, residues 28-129: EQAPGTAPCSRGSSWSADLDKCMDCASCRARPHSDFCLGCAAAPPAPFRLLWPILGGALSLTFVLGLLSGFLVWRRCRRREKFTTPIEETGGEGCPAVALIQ

Target: T1, TRAF2 (human (endogenous in A172 and GBM44)) (UniProt Q12933)
T1 sequence: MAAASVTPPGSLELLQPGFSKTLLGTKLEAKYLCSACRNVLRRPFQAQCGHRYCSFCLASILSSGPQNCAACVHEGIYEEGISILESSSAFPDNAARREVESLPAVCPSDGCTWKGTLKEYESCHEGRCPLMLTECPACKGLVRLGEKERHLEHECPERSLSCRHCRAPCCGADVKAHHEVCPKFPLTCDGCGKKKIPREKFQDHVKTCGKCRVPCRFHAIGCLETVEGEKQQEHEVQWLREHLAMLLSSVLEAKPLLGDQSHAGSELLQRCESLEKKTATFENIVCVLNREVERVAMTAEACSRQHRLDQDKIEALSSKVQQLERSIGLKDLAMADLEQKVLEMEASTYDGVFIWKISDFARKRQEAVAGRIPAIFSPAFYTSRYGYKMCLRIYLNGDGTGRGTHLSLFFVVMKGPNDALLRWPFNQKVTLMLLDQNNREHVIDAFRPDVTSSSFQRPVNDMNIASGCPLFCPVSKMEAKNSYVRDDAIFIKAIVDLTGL
Experiment: co-IP; A172 and GBM44 cells, pre-treated with 10 uM ATA or vehicle for 1 hr, stimulated with 100 ng/mL TWEAK for 2 min; lysis in 10 mM Tris-HCl pH 7.4, 0.5% Nonidet P-40, 150 mM NaCl; 1 mg lysate immunoprecipitated with TRAF2 antibody or isotype-matched control antibody; blot for Fn14 and TRAF2

binding: binds
Substance: fibroblast growth factor-inducible 14 (Fn14) (from UniProt Q9NP84 28-129) (receptor)
